Measured values as given in patent US20250388543A1, “HETEROARYL COMPOUNDS FOR THE TREATMENT OF PAIN” (VERTEX PHARMACEUTICALS INCORPORATED, priority 2022, published 2025).
pIC50: −log10 of the molar value. Some results were stated once for a whole list of compounds, not compound by compound.

By UniProt entry, the sequences of proteins in these tests, tags left out. Residues count along the entry.
UniProt Q9Y5Y9, 126-1722 limits assumed: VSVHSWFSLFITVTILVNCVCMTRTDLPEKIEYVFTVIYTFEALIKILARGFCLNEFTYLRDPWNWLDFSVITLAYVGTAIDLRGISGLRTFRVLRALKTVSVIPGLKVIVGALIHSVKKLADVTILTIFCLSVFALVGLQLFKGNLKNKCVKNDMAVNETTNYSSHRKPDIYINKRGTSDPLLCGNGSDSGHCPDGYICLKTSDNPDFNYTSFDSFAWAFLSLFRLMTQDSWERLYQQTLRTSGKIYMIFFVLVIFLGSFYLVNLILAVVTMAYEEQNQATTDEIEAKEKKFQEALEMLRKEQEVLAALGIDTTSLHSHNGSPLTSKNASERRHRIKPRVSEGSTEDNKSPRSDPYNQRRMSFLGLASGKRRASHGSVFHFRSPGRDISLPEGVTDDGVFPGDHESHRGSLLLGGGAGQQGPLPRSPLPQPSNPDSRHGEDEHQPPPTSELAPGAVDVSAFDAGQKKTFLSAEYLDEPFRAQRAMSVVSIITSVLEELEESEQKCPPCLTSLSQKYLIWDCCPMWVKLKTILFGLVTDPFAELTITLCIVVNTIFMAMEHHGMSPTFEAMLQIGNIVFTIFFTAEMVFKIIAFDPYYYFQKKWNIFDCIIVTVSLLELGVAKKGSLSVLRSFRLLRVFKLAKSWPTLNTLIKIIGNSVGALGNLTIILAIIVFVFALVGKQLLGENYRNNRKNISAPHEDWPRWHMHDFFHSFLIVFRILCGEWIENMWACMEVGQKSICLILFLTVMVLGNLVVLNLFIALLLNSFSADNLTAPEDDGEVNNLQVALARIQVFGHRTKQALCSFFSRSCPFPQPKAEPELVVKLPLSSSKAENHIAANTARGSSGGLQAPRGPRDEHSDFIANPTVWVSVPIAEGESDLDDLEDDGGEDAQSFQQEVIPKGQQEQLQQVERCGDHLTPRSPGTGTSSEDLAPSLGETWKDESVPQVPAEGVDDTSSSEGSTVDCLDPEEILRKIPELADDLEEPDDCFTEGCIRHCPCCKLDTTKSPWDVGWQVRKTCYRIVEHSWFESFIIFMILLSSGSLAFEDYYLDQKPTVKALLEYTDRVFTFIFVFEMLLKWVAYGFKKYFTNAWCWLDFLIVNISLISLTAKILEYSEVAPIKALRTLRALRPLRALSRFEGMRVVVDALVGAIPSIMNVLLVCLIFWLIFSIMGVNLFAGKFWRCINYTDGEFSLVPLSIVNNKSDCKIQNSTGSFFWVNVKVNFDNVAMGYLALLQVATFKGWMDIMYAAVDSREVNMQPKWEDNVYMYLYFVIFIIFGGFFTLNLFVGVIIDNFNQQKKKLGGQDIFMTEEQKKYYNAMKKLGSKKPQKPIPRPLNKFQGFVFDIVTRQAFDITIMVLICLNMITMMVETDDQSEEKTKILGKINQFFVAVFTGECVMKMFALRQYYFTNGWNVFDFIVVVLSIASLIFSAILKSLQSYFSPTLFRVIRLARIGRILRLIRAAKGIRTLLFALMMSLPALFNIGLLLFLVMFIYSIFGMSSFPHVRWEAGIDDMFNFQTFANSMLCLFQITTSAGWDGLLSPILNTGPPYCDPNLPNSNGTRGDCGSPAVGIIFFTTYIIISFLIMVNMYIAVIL

Target: human NaV 1.8 (Homo sapiens, UniProt Q9Y5Y9)
Assay: E-VIPR Assay Detecting and Measuring NaV Inhibition Properties
Type: cell-based
Settings: HEK cells expressing a truncated form of human NaV 1.8 with full channel activity; electrical stimulation, membrane-potential FRET dyes; 30 minutes compound incubation; read-out: measured IC50 value in the E-VIPR Assay

pIC50, > 6.30:
Cc1[nH]c(-c2c(Oc3ccc(F)c(F)c3C)ncc(C(F)(F)F)c2C)cc(=O)c1C [Compound 137, 6-[2-(3,4-difluoro-2-methyl-phenoxy)-4-mcthyl-5-(trifluoromethyl)-3-pyridyl]-2,3-dimethyl-1H-pyridin-4-one]
Cc1cc(=O)cc(-c2cc(C)c(C(F)(F)F)nc2N2CCCC(F)(F)CC2)[nH]1 [Compound 138, 2-[2-(4,4-difluoroazepan-1-yl)-5-methyl-6-(trifluoromethyl)-3-pyridyl]-6-methyl-1H-pyridin-4-one]
Cc1cc(=O)cc(-c2ccc(C(F)(F)F)nc2N2CCCC(F)(F)CC2)[nH]1 [Compound 139, 2-[2-(4,4-difluoroazepan-1-yl)-6-(trifluoromethyl)-3-pyridyl]-6-methyl-1H-pyridin-4-one]
Cc1cc(=O)cc(-c2cc3ccccc3nc2Oc2ccc(F)c(F)c2C)[nH]1 [Compound 140, 2-[2-(3,4-difluoro-2-methyl-phenoxy)-3-quinolyl]-6-methyl-1H-pyridin-4-one]
Cc1[nH]c(-c2cc3ccccc3nc2Oc2ccc(F)c(F)c2C)cc(=O)c1C [Compound 141, 6-[2-(3,4-difluoro-2-methyl-phenoxy)-3-quinolyl]-2,3-dimethyl-1H-pyridin-4-one]
Cc1[nH]c(-c2ccc(C(F)(F)F)nc2N2CCCC(F)(F)CC2)cc(=O)c1C [Compound 143, 6-[2-(4,4-difluoroazepan-1-yl)-6-(trifluoromethyl)-3-pyridyl]-2,3-dimethyl-1H-pyridin-4-one]
Cc1[nH]c(-c2cc3ccccc3nc2N2CCCC(F)(F)CC2)cc(=O)c1C [Compound 144, 6-[2-(4,4-difluoroazepan-1-yl)-3-quinolyl]-2,3-dimethyl-1H-pyridin-4-one]
Cc1[nH]c(-c2cnc(C(F)(F)F)cc2Oc2ccc(F)c(F)c2C)cc(=O)c1C [Compound 147, 6-[4-(3,4-difluoro-2-methyl-phenoxy)-6-(trifluoromethyl)-3-pyridyl]-2,3-dimethyl-1H-pyridin-4-one]
Cc1cc(=O)cc(-c2ccc(C3CC(F)(F)C3)cc2C2CCC(C(F)(F)F)CC2)[nH]1 (stereo not drawn) [Compound 149, 2-[4-(3,3-difluorocyclobutyl)-2-[4-(trifluoromethyl)cyclohexyl]pheny1]-6-methyl-1H-pyridin-4-one]
COc1cc(F)ccc1Oc1cc(C(C)(C)C)cc(C)c1-c1[nH]c(C)nc(=O)c1C [Compound 150, 6-[4-tert-butyl-2-(4-fluoro-2-methoxy-phenoxy)-6-methyl-phenyl]-2,5-dimethyl-1H-pyrimidin-4-one]
COc1cc(F)ccc1Oc1cc(C(C)(C)C)cc(C)c1-c1[nH]c(C)cc(=O)c1C [Compound 151, 2-[4-tert-butyl-2-(4-fluoro-2-methoxy-phenoxy)-6-methyl-phenyl]-3,6-dimethyl-1H-pyridin-4-one]
CCOC(=O)c1c(C)[nH]c(-c2c(C)cc(C(C)(C)C)cc2Oc2ccc(F)cc2OC)cc1=O [Compound 152, ethyl 6-[4-tert-butyl-2-(4-fluoro-2-methoxy-phenoxy)-6-methyl-phenyl]-2-methyl-4-oxo-1H-pyridine-3-carboxylate]
COc1cc(F)ccc1Oc1cc(C(C)(C)C)cc(C)c1-c1cc(=O)c(C)c(C)[nH]1 [Compound 153, 6-[4-tert-butyl-2-(4-fluoro-2-methoxy-phenoxy)-6-methyl-phenyl]-2,3-dimethyl-1H-pyridin-4-one]
COc1cc(F)ccc1Oc1cc(C(C)(C)C)cc(C)c1-c1cc(=O)c(C)c[nH]1 [Compound 154, 2-[4-tert-butyl-2-(4-fluoro-2-methoxy-phenoxy)-6-methyl-phenyl]-5-methyl-1H-pyridin-4-one]
Cc1cc(=O)cc(-c2cnc(C(C)(C)C)cc2C2CCC(C(F)(F)F)CC2)[nH]1 (stereo not drawn) [Compound 155, 2-[6-tert-butyl-4-[4-(trifluoromethyl)cyclohexyl]-3-pyridyl]-6-methyl-1H-pyridin-4-one]
COc1cc(F)ccc1Oc1cc(C(C)(C)C)cc(C)c1-c1cc(=O)cc(C)[nH]1 [Compound 158, 2-[4-tert-butyl-2-(4-fluoro-2-methoxy-phenoxy)-6-methyl-phenyl]-6-methyl-1H-pyridin-4-one]
COc1cc(OC(F)(F)F)ccc1Oc1ccc(C(F)(F)F)c(F)c1-c1cc(=O)cc(C)[nH]1 [Compound 159, 2-[2-fluoro-6-[2-methoxy-4-(trifluoromethoxy)phenoxy]-3-(trifluoromethyl)phenyl]-6-methyl-1H-pyridin-4-one]
COc1nccnc1-c1c(C)[nH]c(-c2c(Oc3ccc(F)c(F)c3C)ncc(C(F)(F)F)c2C)cc1=O [Compound 161, 6-[2-(3,4-difluoro-2-methyl-phenoxy)-4-methyl-5-(trifluoromethyl)-3-pyridyl]-3-(3-methoxypyrazin-2-yl)-2-methyl-1H-pyridin-4-one]
Cc1[nH]c(-c2c(Oc3ccc(F)c(F)c3C)ncc(C(F)(F)F)c2C)cc(=O)c1-c1ccncn1 [Compound 163, 6-[2-(3,4-difluoro-2-methyl-phenoxy)-4-mcthyl-5-(trifluoromethyl)-3-pyridyl]-2-methyl-3-pyrimidin-4-yl-1H-pyridin-4-one]
Cc1nnc(-c2c(C)[nH]c(-c3c(Oc4ccc(F)c(F)c4C)ncc(C(F)(F)F)c3C)cc2=O)o1 [Compound 164, 6-[2-(3,4-difluoro-2-methyl-phenoxy)-4-methyl-5-(trifluoromethyl)-3-pyridyl]-2-methyl-3-(5-methyl-1,3,4-oxadiazol-2-yl)-1H-pyridin-4-one]
Cc1[nH]c(-c2c(Oc3ccc(F)c(F)c3C)cnc(C(F)(F)F)c2C)cc(=O)c1-c1nnn(C)n1 [Compound 165, 6-[5-(3,4-difluoro-2-methyl-phenoxy)-3-mcthyl-2-(trifluoromethyl)-4-pyridyl]-2-methyl-3-(2-methyltetrazol-5-yl)-1H-pyridin-4-one]
Cc1[nH]c(-c2c(Oc3ccc(F)c(F)c3C)ncc(C(F)(F)F)c2C)cc(=O)c1-c1cnn(C)c1 [Compound 166, 6-[2-(3,4-difluoro-2-methyl-phenoxy)-4-methyl-5-(trifluoromethyl)-3-pyridyl]-2-methyl-3-(1-methylpyrazol-4-yl)-1H-pyridin-4-one]
Cc1nc(-c2c(C)[nH]c(-c3c(Oc4ccc(F)c(F)c4C)ncc(C(F)(F)F)c3C)cc2=O)no1 [Compound 167, 6-[2-(3,4-difluoro-2-methyl-phenoxy)-4-methyl-5-(trifluoromethyl)-3-pyridyl]-2-methyl-3-(5-methyl-1,2,4-oxadiazol-3-yl)-1H-pyridin-4-one]
Cc1coc(-c2c(C)[nH]c(-c3c(Oc4ccc(F)c(F)c4C)ncc(C(F)(F)F)c3C)cc2=O)n1 [Compound 168, 6-[2-(3,4-difluoro-2-methyl-phenoxy)-4-methyl-5-(trifluoromethyl)-3-pyridyl]-2-methyl-3-(4-methyloxazol-2-yl)-1H-pyridin-4-one]
Cc1[nH]c(-c2c(Oc3ccc(F)c(F)c3C)ncc(C(F)(F)F)c2C)cc(=O)c1-c1nnco1 [Compound 169, 6-[2-(3,4-difluoro-2-methyl-phenoxy)-4-methyl-5-(trifluoromethyl)-3-pyridyl]-2-methyl-3-(1,3,4-oxadiazol-2-yl)-1H-pyridin-4-one]
Cc1cc(F)ccc1Oc1ncc(C(F)(F)F)c(C)c1-c1cc(=O)c(-c2nnn(C)n2)c(C)[nH]1 [Compound 170, 6-[2-(4-fluoro-2-methyl-phenoxy)-4-methyl-5-(trifluoromethyl)-3-pyridyl]-2-methyl-3-(2-methyltetrazol-5-yl)-1H-pyridin-4-one]
Cc1[nH]c(-c2c(Oc3ccc(F)c(F)c3C)ncc(C(F)(F)F)c2C)cc(=O)c1-c1nnn(C)n1 [Compound 171, 6-[2-(3,4-difluoro-2-methyl-phenoxy)-4-methyl-5-(trifluoromethyl)-3-pyridyl]-2-methyl-3-(2-methyltetrazol-5-yl)-1H-pyridin-4-one]
Cc1[nH]c(-c2c(Oc3ccc(F)c(F)c3C)ncc(C(F)(F)F)c2C)cc(=O)c1-c1cnn(C)n1 [Compound 172]
Cc1noc(-c2c(C)[nH]c(-c3c(Oc4ccc(F)c(F)c4C)ncc(C(F)(F)F)c3C)cc2=O)n1 [Compound 173, 6-[2-(3,4-difluoro-2-methyl-phenoxy)-4-methyl-5-(trifluoromethyl)-3-pyridyl]-2-methyl-3-(3-methyl-1,2,4-oxadiazol-5-yl)-1H-pyridin-4-one]
Cc1[nH]c(-c2c(Oc3ccc(F)c(F)c3C)ncc(C(F)(F)F)c2C)cc(=O)c1-c1ncco1 [Compound 174, 6-[2-(3,4-difluoro-2-methyl-phenoxy)-4-methyl-5-(trifluoromethyl)-3-pyridyl]-2-methyl-3-oxazol-2-yl-1H-pyridin-4-one]
Cc1cnc(-c2c(C)[nH]c(-c3c(Oc4ccc(F)c(F)c4C)ncc(C(F)(F)F)c3C)cc2=O)o1 [Compound 175, 6-[2-(3,4-difluoro-2-methyl-phenoxy)-4-methyl-5-(trifluoromethyl)-3-pyridyl]-2-methyl-3-(5-methyloxazol-2-yl)-1H-pyridin-4-one]
Cc1cc(-c2c(C)[nH]c(-c3c(Oc4ccc(F)c(F)c4C)ncc(C(F)(F)F)c3C)cc2=O)on1 [Compound 176, 6-[2-(3,4-difluoro-2-methyl-phenoxy)-4-methyl-5-(trifluoromethyl)-3-pyridyl]-2-methyl-3-(3-methylisoxazol-5-yl)-1H-pyridin-4-one]
Cc1cc(-c2cc(=O)c(-c3cnn(C)c3)c(C)[nH]2)c(N2CCCC(F)(F)CC2)nc1C(F)(F)F [Compound 177, 6-[2-(4,4-difluoroazcpan-1-yl)-5-methyl-6-(trifluoromethyl)-3-pyridyl]-2-methyl-3-(1-methylpyrazol-4-yl)-1H-pyridin-4-one]
